Laboratory results taken from patent US20180049444A1, “XENORHABDUS SZENTIRMAII METABOLITES, TRANS-CINNAMIC ACID, AND ANALOGS THEREOF AS ENHANCERS OF FUNGICIDAL ACTIVITY” (priority 2016, published 2018).
Some results were stated once for a whole list of compounds, not compound by compound.

Tested on: Rhizoctonia solani
Test: Vegetative growth on PDA with fungicidal agents applied alone or in combination; chi-square interaction analysis (Experiment 4)
Type: cell-based
Settings: Expt. 4; applied alone; TCA, or low rate of the commercial fungicide

O=C(O)/C=C/c1ccccc1 [TCA, trans-Cinnamic acid]
suppression of R. solani: < 25%
